Laboratory results from patent US20220090083A1, “TARGETING EGLN1 IN CANCER” (THE BROAD INSTITUTE, INC., priority 2018, published 2022).
Some entries share one result that the patent states for a list of compounds.

Test system: HIF1A
Assay: Immunoblot of HIF1A levels after inhibitor treatment
Assay type: cell-based, human
Conditions: ES2 and TOV112D

Row | Structure (SMILES) | concentration at which HIF1A accumulation peaked [µM] | concentration at which HIF1A accumulation was observed [µM]
1 | O=c1c(-n2ccnn2)c[nH]n1-c1cc(N2CCOCC2)ncn1 [Molidustat] | 20 to 40 | 5 to 10
2 | Cc1nc(C(=O)NCC(=O)O)c(O)c2ccc(Oc3ccccc3)cc12 [FG-4592] | 20 to 40 | 5 to 10
